In PMC4743851:
These are yes or no findings as the source states them, for the method shown. Binding seen in cells or lysates may run through a third protein. Some binding calls cover weakened binding; strength is not graded here.

Sequences of proteins named here, by UniProt entry; tags and fusion partners are left off. Residues count along the entry.
UniProt Q08849: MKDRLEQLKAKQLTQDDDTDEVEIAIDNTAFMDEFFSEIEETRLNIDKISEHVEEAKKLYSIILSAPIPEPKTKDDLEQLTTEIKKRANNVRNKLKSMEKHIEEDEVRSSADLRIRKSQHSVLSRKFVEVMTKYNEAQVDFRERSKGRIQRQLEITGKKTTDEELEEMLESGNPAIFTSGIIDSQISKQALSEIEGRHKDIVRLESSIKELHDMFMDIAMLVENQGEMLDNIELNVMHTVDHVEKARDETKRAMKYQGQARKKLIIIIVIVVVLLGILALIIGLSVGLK
UniProt P54290, residues 25-1091: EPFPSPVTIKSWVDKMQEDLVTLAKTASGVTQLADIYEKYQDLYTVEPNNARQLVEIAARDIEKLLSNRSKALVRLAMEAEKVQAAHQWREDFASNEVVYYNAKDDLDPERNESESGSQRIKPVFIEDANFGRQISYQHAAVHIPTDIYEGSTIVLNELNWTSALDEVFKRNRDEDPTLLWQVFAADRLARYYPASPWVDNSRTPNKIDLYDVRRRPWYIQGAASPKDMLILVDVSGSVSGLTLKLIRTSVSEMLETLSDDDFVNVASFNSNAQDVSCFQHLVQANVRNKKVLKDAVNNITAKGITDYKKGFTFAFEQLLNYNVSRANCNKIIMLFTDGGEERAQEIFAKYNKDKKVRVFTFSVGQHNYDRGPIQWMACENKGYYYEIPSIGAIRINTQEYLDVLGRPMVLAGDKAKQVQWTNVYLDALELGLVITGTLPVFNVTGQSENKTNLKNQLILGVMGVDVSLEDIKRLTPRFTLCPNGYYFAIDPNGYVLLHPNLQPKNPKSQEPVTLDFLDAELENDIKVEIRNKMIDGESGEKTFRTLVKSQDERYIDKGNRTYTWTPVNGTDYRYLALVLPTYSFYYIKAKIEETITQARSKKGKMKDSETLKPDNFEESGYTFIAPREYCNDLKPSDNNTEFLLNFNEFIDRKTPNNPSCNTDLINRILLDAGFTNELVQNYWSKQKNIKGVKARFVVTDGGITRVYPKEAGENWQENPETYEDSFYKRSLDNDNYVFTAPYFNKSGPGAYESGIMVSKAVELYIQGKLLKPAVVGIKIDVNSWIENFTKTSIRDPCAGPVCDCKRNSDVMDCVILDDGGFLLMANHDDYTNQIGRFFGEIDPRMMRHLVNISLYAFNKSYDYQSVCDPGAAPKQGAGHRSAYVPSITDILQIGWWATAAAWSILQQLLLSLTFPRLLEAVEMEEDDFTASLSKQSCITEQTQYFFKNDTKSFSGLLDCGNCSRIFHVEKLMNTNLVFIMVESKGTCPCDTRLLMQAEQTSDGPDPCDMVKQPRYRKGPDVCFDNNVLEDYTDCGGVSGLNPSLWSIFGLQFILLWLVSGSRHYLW

Each substance was assayed against Syntaxin-3 (endogenous, INS-1 832/13 cells) (rat (endogenous in INS-1 832/13)) (UniProt Q08849) (assay: co-IP; IP with 2 μg Syn-3 or Syn-1A antibody from 1 mg INS-1 832/13 lysate; cells at basal 0.8 mM glucose or stimulated with 16.7 mM glucose plus 10 nM GLP-1 for 30 min; blots quantified as percent recovery of total lysate input).
“Cav2.2 alpha1 pore-forming subunit (endogenous, INS-1 832/13 cells) (from UniProt Q02294 1-2336)” was tested, and the binding was “no binding”. “Cav auxiliary subunit alpha2delta-1 (endogenous, INS-1 832/13 cells) (from UniProt P54290 25-1091)” was tested, and the binding was “binds weakly”. “Cav auxiliary subunit beta3 (endogenous, INS-1 832/13 cells) (from UniProt P54287 1-484)” was tested, and the binding was “binds weakly”.
